Measurements as given in PubChem BioAssay AID328 (DTP/NCI, 2004).
The list is a part of this screen's results and no random one: it gathers tests that were run many times, whatever their T/C, doses with no T/C, and many T/C values between a quarter and a half above the control. Other doses and runs of a compound stand elsewhere. T/C is the treated group as % of the vehicle group. Some entries give survivors of the animals treated and no T/C: the source files T/C as zero there, which appears to mark a toxic dose or a test without result, not a measured value. Some survivor counts are full or nearly so, which does not show that the dose was tolerated: survival well below the control is almost never listed, so the zero probably covers shortened survival too. Counts of survivors are from the toxicity check (mostly the fifth day) where no day follows; animals may have died later. Schedule codes are those of the source, taken here to give the interval after Q, in days (D) or hours (H), and the number of doses after X. Some entries were tested several times; the values are given in rising order. Where survival is the endpoint, the PubChem record calls one and a half times the control and up active, and a quarter to a half above the control has no call in these data; cut-offs in other NCI protocols can differ. Some T/C values are followed by the survivors on the day toxicity was checked, most often the fifth; where none is given, no animal had died by that day.

Test system: BDF1 mice, P388 leukemia ip, median survival T/C
Test: NCI In Vivo Anticancer Drug Screen. Data for tumor model P388 Leukemia (intraperitoneal) in B6D2F1 (BDF1) mice
Details: T/C endpoint: median survival time, higher T/C = longer survival
Method in brief: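 Steps: implant the tumour, treat one group with compound and another with vehicle, record survival, then divide treated by control.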

[1] = dose: 100.0 mg/kg/injection, schedule: Q01DX009 (ip), vehicle: saline with Tween-80
[2] = dose: 200.0 mg/kg/injection, schedule: Q01DX009 (ip), vehicle: saline with Tween-80
[3] = dose: 12.5 mg/kg/injection, schedule: Q01DX009 (ip), vehicle: Klucel (hydroxypropylcellulose) (HPC)
[4] = dose: 25.0 mg/kg/injection, schedule: Q01DX009 (ip), vehicle: Klucel (hydroxypropylcellulose) (HPC)
[5] = dose: 400.0 mg/kg/injection, schedule: Q04DX003 (ip), vehicle: Klucel (hydroxypropylcellulose) (HPC)
[6] = dose: 100.0 mg/kg/injection, schedule: Q04DX003 (ip), vehicle: saline
[7] = dose: 200.0 mg/kg/injection, schedule: Q04DX003 (ip), vehicle: saline
[8] = dose: 400.0 mg/kg/injection, schedule: Q04DX003 (ip), vehicle: saline
[9] = dose: 25.0 mg/kg/injection, schedule: Q01DX009 (ip), vehicle: saline with Tween-80
[10] = dose: 50.0 mg/kg/injection, schedule: Q01DX009 (ip), vehicle: saline with Tween-80
[11] = dose: 400.0 mg/kg/injection, schedule: Q04DX003 (ip), vehicle: saline with Tween-80
[12] = dose: 400.0 mg/kg/injection, schedule: Q01DX009 (ip), vehicle: Klucel (hydroxypropylcellulose) (HPC)

COc1cc(OC)c(/C=C/c2c3ccccc3cc[n+]2C)c(OC)c1
survivor count [1]: 0 of 6
survivor count [2]: 0 of 6
survivor count (dose: 400.0 mg/kg/injection, schedule: Q01DX009 (ip), vehicle: saline with Tween-80): 0 of 6

COC1C(O)=C2C(=O)OC(C)(O)/C=C/C=C\C=C/C=C/C(c3ccccc3)NC(=O)/C=C/C=C/C=C/C=C/C2(C)C1O (stereo not given)
survivor count (dose: 3.12 mg/kg/injection, schedule: Q01DX009 (ip), vehicle: Klucel (hydroxypropylcellulose) (HPC)): 4 of 6
survivor count (dose: 6.25 mg/kg/injection, schedule: Q01DX009 (ip), vehicle: Klucel (hydroxypropylcellulose) (HPC)): 4 of 6
T/C [3]: 140 % of control
survivor count [3]: 5 of 6
survivor count (dose: 16.0 mg/kg/injection, schedule: Q01DX009 (ip), vehicle: Klucel (hydroxypropylcellulose) (HPC)): 0 of 6
T/C [4]: 140 % of control
survivor count [4]: 1 of 6
survivor count (dose: 35.0 mg/kg/injection, schedule: Q01DX009 (ip), vehicle: Klucel (hydroxypropylcellulose) (HPC)): 1 of 6
survivor count (dose: 50.0 mg/kg/injection, schedule: Q01DX009 (ip), vehicle: Klucel (hydroxypropylcellulose) (HPC)): 2 of 6
survivor count (dose: 100.0 mg/kg/injection, schedule: Q01DX009 (ip), vehicle: Klucel (hydroxypropylcellulose) (HPC)): 1 of 6

O=C(NCCCl)NC1c2ccccc2CCc2ccccc21
survivor count [5]: 6 of 6

C=CC[Se]c1ncnc2c1c(C#N)cn2C1OC(CO)C(O)C1O (stereo not given)
survivor count [6]: 5 of 6
survivor count [7]: 3 of 6
survivor count [8]: 1 of 6

NC1CONC1=O (stereo not given)
survivor count (dose: 200.0 mg/kg/injection, schedule: Q01DX009 (ip), vehicle: saline): 8 of 8

CC1(C)N=C(N)N=C(N)N1c1ccc(CCc2ccc(S(=O)(=O)F)cc2)c(Cl)c1
T/C [9]: 145 % of control
T/C [10]: 145 % of control [5 of 6 alive]
T/C (dose: 50.0 mg/kg/injection, schedule: Q04DX003 (ip), vehicle: saline sonified): 136 % of control [5 of 6 alive]
T/C (dose: 75.0 mg/kg/injection, schedule: Q04DX003 (ip), vehicle: saline sonified): 145 % of control [4 of 6 alive]

OC1c2cc(Cl)ccc2-c2c(Cl)cc(Cl)cc21 (stereo not given)
survivor count [11]: 3 of 6

CC1CNCC(C)N1C(=O)c1ccccc1 (stereo not given)
T/C (dose: 0.8 mg/kg/injection, schedule: Q01DX009 (ip), vehicle: water): 125 % of control

CC1(C)OC(COCCOCCOCCCO)C(COCCOCCOCCCO)O1 (stereo not given)
T/C (dose: 400.0 mg/kg/injection, schedule: Q01DX001 (ip), vehicle: saline): 127 % of control

CN(C)Cc1cc(C(C)(C)CC(C)(C)C)ccc1O
survivor count (dose: 400.0 mg/kg/injection, schedule: Q04DX002 (ip), vehicle: Klucel (hydroxypropylcellulose) (HPC)): 3 of 6

O=c1c2ccccc2cc2ccccn12
survivor count [12]: 1 of 6
survivor count [5]: 3 of 6

C[C@]12CCC(=O)C=C1CC[C@H]1[C@@H]3CC[C@@]4(OCC4=O)[C@@]3(C)C[C@H](O)[C@@]12F
survivor count (dose: 200.0 mg/kg/injection, schedule: Q01DX009 (ip), vehicle: Klucel (hydroxypropylcellulose) (HPC)): 5 of 6
survivor count [12]: 5 of 6

Nc1cc(C(=O)Nc2ccc(CCNC3=NCCN3)cc2)ccc1C(=O)Nc1ccc(CCNC2=NCCN2)cc1
T/C (dose: 4.0 mg/kg/injection, schedule: Q01DX009 (ip), vehicle: saline with Tween-80): 130 % of control
T/C (dose: 18.0 mg/kg/injection, schedule: Q04DX003 (ip), vehicle: saline with Tween-80): 145 % of control
survivor count (dose: 40.0 mg/kg/injection, schedule: Q01DX009 (ip), vehicle: saline with Tween-80): 6 of 6
survivor count (dose: 60.0 mg/kg/injection, schedule: Q04DX003 (ip), vehicle: saline with Tween-80): 2 of 6

O=P(NC1CCCC1)(N1CC1)N1CC1
T/C (dose: 3.13 mg/kg/injection, schedule: Q01DX009 (ip), vehicle: saline): 141 % of control
survivor count (dose: 25.0 mg/kg/injection, schedule: Q01DX009 (ip), vehicle: saline): 6 of 6
survivor count [6]: 0 of 6
survivor count [7]: 3 of 6
survivor count [8]: 2 of 6

c1ccc([C@H]2CN3CCSC3=N2)cc1
survivor count (dose: 40.0 mg/kg/injection, schedule: Q01DX009 (ip), vehicle: saline): 1 of 5 and 2 of 6

COc1cccc2c1C(=O)c1c(O)c3c(c(O)c1C2=O)C[C@@](O)(C(C)=O)C[C@@H]3OC(=O)CCN
T/C (dose: 3.12 mg/kg/injection, schedule: Q01DX009 (ip), vehicle: water): 125 % of control
T/C (dose: 6.25 mg/kg/injection, schedule: Q01DX009 (ip), vehicle: water): 127 % of control
T/C (dose: 25.0 mg/kg/injection, schedule: Q01DX009 (ip), vehicle: water): 133 % of control [5 of 6 alive]

[N-]=[N+]=NCc1cnccn1
survivor count (dose: 50.0 mg/kg/injection, schedule: Q01DX009 (ip), vehicle: saline): 1 of 6

O=C(O)c1cc(C(Cl)(Cl)Cl)ccc1C(Cl)(Cl)Cl
T/C (dose: 200.0 mg/kg/injection, schedule: Q04DX003 (ip), vehicle: saline sonified): 127 % of control [5 of 6 alive]

Cc1ccc(C[N+](C)(C)C)c2ccccc12
survivor count [6]: 1 of 6
survivor count [7]: 2 of 6
survivor count [8]: 0 of 6

CCCCCCCCCCCCCCCC(=O)N1CCC(N2CCCCC2)CC1
survivor count (dose: 100.0 mg/kg/injection, schedule: Q01DX001 (ip), vehicle: Klucel (hydroxypropylcellulose) (HPC)): 6 of 6

C=Cn1ccnc1C(O)(c1ccc(Cl)cc1)c1ccc(Cl)cc1
T/C [10]: 125 % of control
T/C [2]: 132 % of control

NC(=O)NCCCC(N)C(=O)O (stereo not given)
survivor count (dose: 400.0 mg/kg/injection, schedule: Q01DX010 (ip), vehicle: saline): 4 of 6

FC(F)(F)C(F)(F)C(F)(F)c1nc2nc(Cl)c(Cl)nc2[nH]1
survivor count [9]: 3 of 6 and 4 of 6
survivor count [10]: 3 of 6
survivor count [1]: 1 of 6
survivor count (dose: 200.0 mg/kg/injection, schedule: Q04DX003 (ip), vehicle: saline with Tween-80): 4 of 6
survivor count [11]: 2 of 6

C[C@]12C[C@H](O)[C@H]3[C@@H](CCC4=CC(=O)CC[C@@]43C)[C@@H]1CC[C@@H]2C(=O)CO
T/C (dose: 100.0 mg/kg/injection, schedule: Q04DX003 (sc), vehicle: steroid suspending solution): 125 % of control
T/C (dose: 264.0 mg/kg/injection, schedule: Q04DX003 (sc), vehicle: steroid suspending solution): 127 % of control
T/C (dose: 400.0 mg/kg/injection, schedule: Q04DX003 (sc), vehicle: steroid suspending solution): 125 and 127 % of control
